{"source": "patent US20080045486A1", "about": "“OCULAR ADMINISTRATION OF TESTOSTERONE” (priority 2006, published 2008)", "experiment": "16-week dose-ranging study of testosterone ophthalmic solutions in patients with keratoconjunctivitis sicca, serum pharmacokinetics", "format": "in vivo, human", "conditions": "female and male patients, 16 weeks of dosing", "experimental": "Another clinical study entitled “A Multi-Center, Parallel, Randomized, Double-Masked, Vehicle-Controlled, Dose-Ranging Study to Evaluate the Safety, Tolerability and Efficacy of Testosterone 0.01%, 0.1%, and 0.3% Ophthalmic Solutions Administered Twice Daily for 16 weeks in Patients with Keratoconjunctivitis Sicca (KCS)” was conducted to determine the effectiveness of the ocular administration of testosterone in both women and men. This study was a randomized, multi-center, double-masked, parallel-group study of three treatment groups and one vehicle group. Patients were randomized to either 0.01%, 0.1%, 0.3% testosterone or vehicle of 0.3% testosterone ophthalmic solution. […] Serum concentrations of testosterone and dihydrotestosterone were determined by a validated gas chromatography-mass spectrometry (GC-MS) method with a quantitation range for DHT of 0.1 to 100 ng/dL and for testosterone of 1.0 to 1000 ng/dL. Serum concentrations of 3-alpha-androstanediol-glucuronide were quantitated by a validated radioimmunoassay method with a range of quantitation from 0.800 to 100 ng/mL, and serum concentrations of sex hormone binding globulin were determined using a validated two-site immunoradiometric assay (IRMA) method with a range of quantitation of 5 to 320 nmol/L for a 1:100 diluted sample.", "data": [{"smiles": "C[C@]12CC[C@H]3[C@@H](CCC4=CC(=O)CC[C@@]43C)[C@@H]1CC[C@@H]2O", "note": "[testosterone, (17β)-17-Hydroxyandrost-4-en-3-one]", "values": [{"measurement": "serum 3-alpha-androstanediol glucuronide concentration", "result": "unaffected"}, {"measurement": "serum sex hormone binding globulin concentration", "result": "unaffected"}]}]}
